The text below walks through data of PubChem BioAssay AID2685 (National Center for Advancing Translational Sciences (NCATS), 2010).

Broadly, the AC50 is the midpoint of the concentration-response curve, whichever way the signal moves.

The nature of the test: qHTS Assay for Lipid Storage Modulators in Drosophila S3 Cells.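 For cell number change: cells counted by Cell Tracker Red CMTPX staining in the red channel.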 As to conditions: BODIPY lipid droplet fluorescence, 18-24 h; for cell number change: measured here: cell count max response, cells fed with added oleic acid. A digest of the protocol:
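Laser-scanning cytometry quantifies lipid droplet accumulation (500–530 nm total intensity; droplet/cell object ratio) in oleic acid-fed (400 uM added) Drosophila S3 cells treated with a concentration series. 20 uM Triacsin C defined 100% inhibition.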
In general terms: Quantitative high-throughput screening tests each substance at several concentrations.

Where [1] appears, read: measured here: lipid fluorescence (Fed channel) AC50, cells fed with added oleic acid.
[2] abbreviates: measured here: cell number channel AC50, cells fed with added oleic acid.

This is one part of the list. Further columns of the screen follow, without active or inactive calls. Compounds called inactive in the main read-out are mostly missing here. The note in brackets gives the kind of curve behind each potency; many fits are weak.

Consider `N/C(=N\OC(=O)Cc1ccc(Cl)cc1)c1ccccn1`, for which the cell number change came to 6%. Besides, the AC50 under setting [1] was 4.61 µM [rising, partial curve].

Turning to `C/C(CC(=O)NC(C)C)=N\NC(=O)COc1cc(C)c(Br)cc1Br`, the cell number change amounted to 16.7%. In addition, the AC50 under setting [1] was 2.91 µM [rising, full curve].

Regarding `CC(=O)NC(c1cc(Cl)c2cccnc2c1O)C(C)C` (centres undefined), the cell number change is -38.6%. For the same molecule, the AC50 under setting [2] is 29.1 µM [falling, single point]. Under setting [1], the AC50 was 29.1 µM [falling, single point].

For `CN1C(=O)CS(=O)c2ccc(C(=O)NC3CC3)cc21` (centres undefined), the cell number change is -5.52%.

On to `Cc1ccc(S(=O)(=O)N2CCOCC2)cc1NC(=O)C1=NN(c2ccccc2)C(=O)CC1`, for which the cell number change is -17.8%.

For the molecule `Cc1c(NC(=O)c2cc(=O)[nH]c(=O)[nH]2)c(=O)n(-c2ccccc2)n1C`, the cell number change came out at 2.58%.

On to `CCOc1ccc(C(=O)NCc2ccco2)cc1OC`, for which the AC50 under setting [1] is 0.13 µM [falling, full curve, poor fit].

Take `O=C(NC(=S)NCCSc1ccccc1)c1cccnc1`: the cell number change amounted to 10.1%. The AC50 under setting [2] was 1.46 µM [rising, partial curve, poor fit].

With `Cc1cc(C)n(S(=O)(=O)c2ccc(F)cc2)n1`, the cell number change was 0.365%. For the same molecule, the AC50 under setting [1] was 2.31 µM [rising, full curve].

`COc1ccc(/C=N/NC(=O)c2cccc(NC(C)=O)c2)c(C(=O)O)c1OC`: the cell number change is 22.1%. Also, the AC50 under setting [2] is 4.11 µM [rising, full curve, poor fit]. Moreover, under setting [1], the AC50 is 4.11 µM [rising, full curve, poor fit].

`Cn1cc(P(=O)(N2CCOCC2)N2CCOCC2)cc1P(=S)(N1CCOCC1)N1CCOCC1`: the AC50 under setting [1] was 13 µM [rising, partial curve].

As for `O=c1[nH]c(-c2ccccc2Cl)nc2c1sc(=S)n2-c1ccccc1`, the cell number change is -22%. Under setting [1], the AC50 was 3.66 µM [falling, full curve, poor fit].

As to `COc1ccccc1NC(=O)Nc1nc(CC(=O)N2CCN(c3ccc(F)cc3)CC2)cs1`, the cell number change was -19.8%. The half-maximal activity concentration (AC50) under setting [2] is 1.16 µM [falling, full curve, poor fit].

As to `COc1ccc(S(=O)(=O)NCC2CCCN(C(=O)C3CCCC3)C2)cc1` (centres undefined), the cell number change is -1.09%. For the same molecule, under setting [1], the AC50 is 0.411 µM [falling, single point].

Turning to `CCC(=O)Nc1ccccc1C(=O)OCC(=O)Nc1ccc(S(N)(=O)=O)cc1`, the cell number change was determined as 0.607%. For the same molecule, the AC50 under setting [1] was 0.651 µM [falling, single point].

With `Cc1ccc(-n2c(Cl)c(Cl)nc(Cl)c2=O)cc1`, the cell number change was -66.6%. The AC50 under setting [2] was 13 µM [falling, partial curve]. Under setting [1], the AC50 is 5.8 µM [falling, full curve].

On to `O=C(O)C1C2CC2CN1C(=O)c1ccc(Cl)cc1` (centres undefined), for which the cell number change is -13.8%. Moreover, the AC50 under setting [2] was 3.66 µM [falling, single point].

For the molecule `O=C(CN1CCCC1)NC1C2CC3CC(C2)CC1C3` (centres undefined), the cell number change was found to be 22%.

In the case of `O=C(Cn1c(=O)n(Cc2ccccc2)c(=O)c2cc(Cl)ccc21)NCC1CCCO1` (centres undefined), the cell number change was determined as 6.31%. The AC50 under setting [1] is 6.51 µM [rising, single point].

Turning to `Cn1c(N)c(C(=O)COC(=O)CCc2nc3ccccc3s2)c(=O)n(C)c1=O`, the cell number change is -112%. In addition, under setting [2], the AC50 was 29.1 µM [falling, single point].

For the molecule `CC1=NN(C(=O)Cc2ccccc2)C(O)(c2cccnc2)C1` (centres undefined), the AC50 under setting [1] was 0.58 µM [rising, single point].

For the molecule `C=CCn1c2ccccc2c2nnc(SCc3ccc4nonc4c3)nc21`, the AC50 runs as follows: under setting [2], 0.651 µM [rising, single point]; under setting [1], 0.651 µM [rising, single point].

In the case of `COc1ccccc1C(=O)N/N=C(\C)CC(=O)Nc1ccc(Nc2ccccc2)cc1`, the cell number change was determined as 17.9%.

Regarding `CC[C@H](CO)Nc1nc(Nc2cccc(Cl)c2)c2ncn(C(C)C)c2n1`, the cell number change is -10.1%. For the same molecule, under setting [1], the AC50 was 0.731 µM [rising, single point].

For the molecule `CC1(C)NC(=O)N(CC(O)CN(Cc2ccccc2)Cc2ccccc2)C1=O` (centres undefined), the cell number change is -114%. The AC50 under setting [2] is 20.6 µM [falling, single point]. Besides, the AC50 under setting [1] is 29.1 µM [falling, single point].

Turning to `CC1CCc2[nH]c3ccc(C(=O)O)cc3c2C1` (centres undefined), the cell number change is 3.3%. Under setting [1], the AC50 was 29.1 µM [falling, single point].

With `CCOc1ccc(-n2c(COc3ccccc3)nnc2SCC(N)=O)cc1`, the cell number change came to 5.06%. For the same molecule, the AC50 under setting [1] is 0.517 µM [falling, partial curve].

Consider `CCOC(=O)c1c(NC(=O)c2cccc(N3C(=O)CCC3=O)c2)sc2c1CCN(CC)C2`, for which the cell number change is -15.9%. Further, under setting [1], the AC50 was 16.4 µM [falling, single point].

Turning to `O=c1oc(C2(O)CCCCC2)cc2ccc(Br)cc12`, the cell number change came out at 9.25%. The AC50 under setting [2] is 0.103 µM [falling, single point].

In the case of `Cc1ccc(S(=O)(=O)Cc2ccc(C(=O)N3CCN(Cc4ccccc4)CC3)o2)cc1`, the cell number change stood at 143%. In addition, the AC50 under setting [2] is 5.8 µM [rising, full curve]. Also, the AC50 under setting [1] is 2.06 µM [rising, partial curve].

Regarding `CSc1cccc(CN2CCC(CO)(Cc3cccc(C(F)(F)F)c3)CC2)c1`, the cell number change is -24.9%. Besides, the AC50 under setting [1] was 29.1 µM [falling, single point].

Consider `O=C(c1ccc(S(=O)(=O)Cc2cc(F)ccc2F)c([N+](=O)[O-])c1)N1CCCCC1`, for which the cell number change is -12.9%. The AC50 under setting [1] was 18.4 µM [falling, single point].

For `N#CCSc1nc2sc3c(c2c(=O)n1C1CCCCC1)CCCC3`, the cell number change was 23.5%. Under setting [1], the AC50 is 6.51 µM [rising, full curve].

As to `CCCCCCCCOc1ccc(C2OC34CCCCC3C(C#N)(C#N)C2(C#N)C(=N)O4)cc1` (centres undefined), the cell number change was 18.1%.

Take `Cc1ccc(N(CN2CCCC2=O)C(=O)c2ccc(C)c(C)c2)cc1`: the AC50 by setting is: under setting [2], 3.26 µM [rising, partial curve, poor fit]; under setting [1], 0.146 µM [rising, full curve, poor fit].

As to `CC(C)Cn1c(CN2CCCCC2C)nc2c1c(=O)n(C)c(=O)n2C` (centres undefined), the cell number change was -30.8%. For the same molecule, the AC50 under setting [2] was 0.103 µM [falling, full curve, poor fit]. Also, the AC50 under setting [1] is 16.4 µM [falling, partial curve].

As for `CC(OC(=O)c1cccc(S(=O)(=O)N2CCCCCC2)c1)C(=O)Nc1ccc(S(N)(=O)=O)cc1` (centres undefined), the cell number change was -20.1%. For the same molecule, the AC50 under setting [2] was 1.03 µM [falling, full curve, poor fit]. Further, under setting [1], the half-maximal activity concentration (AC50) was 29.1 µM [falling, single point].

As to `O=C(Nc1ccc(N2CCCCC2)c(Cl)c1)c1ccc2c(c1)OCCO2`, the cell number change is -14.5%. For the same molecule, the AC50 under setting [1] was 0.116 µM [falling, full curve, poor fit].

Regarding `CC(C)N(Cc1cc2ccccc2[nH]c1=O)C(=O)C(C)(C)C`, the cell number change is 21.1%. Besides, the AC50 under setting [2] was 0.116 µM [rising, full curve, poor fit].

On to `O=C(Nc1scc(-c2ccccc2)c1C(=O)O)c1ccco1`, for which the AC50 under setting [2] is 6.51 µM [falling, single point].

As to `CNS(=O)(=O)c1cccc(C(=O)OCC(=O)N2c3ccccc3CC2C)c1` (centres undefined), the cell number change was -0.231%. For the same molecule, the concentration at half-maximal activity (AC50) under setting [1] was 29.1 µM [rising, single point].

Consider `O=S(=O)(Nc1ccc(-n2cccc2)cc1)c1ccc(Cl)c(Cl)c1`, for which the cell number change is -64.1%.

For `CC(=O)O[C@]1(C(C)=O)CCC2C3CCC4=C/C(=N/OCC(=O)O)CC[C@]4(C)C3CC[C@@]21C` (some centres undefined), the cell number change was determined as 18.1%.

Take `COc1cc(C)ccc1S(=O)(=O)NC1CC(C)(C)NC(C)(C)C1`: the cell number change was -6.67%.

With `CCOC(=O)c1ccc(S(=O)(=O)N2CCC(C(=O)O)CC2)cc1`, the cell number change was 8.56%. Further, the AC50 under setting [1] is 0.291 µM [falling, full curve, poor fit].

`CCOC(=O)c1c(NS(=O)(=O)Cc2ccccc2)sc2c1CCCC2`: the cell number change is 87.9%. Moreover, the AC50 under setting [2] is 14.6 µM [rising, partial curve].

For the molecule `CN(C)CCN(C(=O)c1ccc2ccccc2c1)c1nc2ccc(F)cc2s1`, the cell number change is -7.95%. In addition, the AC50 under setting [2] is 0.13 µM [rising, full curve, poor fit]. Under setting [1], the AC50 is 0.58 µM [rising, single point].

Consider `Cc1ccc(NC(=O)CCc2ccc(S(=O)(=O)N3CCOCC3)cc2)c(C)c1`, for which the AC50 under setting [1] is 0.461 µM [rising, partial curve, poor fit].

Take `CCOC(=O)c1c(NC(=O)Cn2nnc3ccccc32)sc2c1CCC(C)C2` (centres undefined): the cell number change amounted to 8.96%. Moreover, the AC50 under setting [1] was 0.259 µM [rising, full curve].

As to `Cc1cc(C)c(S(=O)(=O)NCCc2ccccc2)c(C)c1`, the cell number change was -33.4%. Under setting [2], the AC50 was 16.4 µM [falling, single point]. The AC50 under setting [1] is 18.4 µM [falling, single point].

As to `c1ccc(C(c2ccccc2)c2noc(CN3CCC(c4ccncc4)CC3)n2)cc1`, the cell number change was found to be 12.5%. The AC50 under setting [1] is 2.06 µM [rising, full curve, poor fit].

As for `COc1cccc(-c2cc(C(=O)Nc3nc4ccccc4s3)c3ccccc3n2)c1`, the cell number change was -24.9%. Also, the AC50 under setting [1] is 10.3 µM [falling, partial curve].

Take `COc1cccc(NC(=O)CCN2C(=O)C3CC=CCC3C2=O)c1` (centres undefined): the cell number change was determined as 18.8%. Also, the half-maximal activity concentration (AC50) under setting [2] is 0.092 µM [rising, full curve, poor fit]. Besides, the AC50 under setting [1] is 1.64 µM [rising, partial curve].

Consider `CC(C)CN(C(=O)c1cccs1)C1CCS(=O)(=O)C1` (centres undefined), for which the cell number change was -2.45%. In addition, under setting [1], the AC50 was 29.1 µM [rising, single point].

Regarding `Cc1ccc(C)c(NC(=O)C2CCCN(S(=O)(=O)c3cccnc3)C2)c1` (centres undefined), the cell number change worked out at 75.8%. Also, under setting [2], the AC50 is 14.6 µM [rising, partial curve, poor fit]. Moreover, under setting [1], the AC50 is 29.1 µM [rising, partial curve].

As for `CCOC(=O)c1nnn(-c2nonc2N)c1COc1ccccc1`, the cell number change amounted to 13.1%. For the same molecule, under setting [1], the half-maximal activity concentration (AC50) is 0.461 µM [rising, single point].

For the molecule `CCOc1ccc(-n2c(SCC(=O)NC)nnc2-c2ccco2)cc1`, the cell number change came to 1.05%.

As for `CCOC(=O)c1nn(-c2cccc(C)c2)cc1C(=O)c1ccccc1`, the cell number change is 0.738%. Moreover, under setting [2], the AC50 is 0.517 µM [rising, single point]. In addition, under setting [1], the AC50 was 29.1 µM [rising, single point].

Regarding `CS(=O)(=O)N1CCC(Oc2ccccc2C(=O)N2CCCCC2CO)CC1` (centres undefined), the concentration at half-maximal activity (AC50) under setting [1] was 2.06 µM [falling, partial curve].
